Screening data, single-dose tests

The filed quantity is “Percent Effect” (%). The record does not define 0% and 100%; most values in the screen are far below 50% and negative numbers occur (in some assays of this library far below -100). The compounds are a random part of those screened. Two or more numbers in one place are separate tests of the same structure; such repeats can differ widely.

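Growth of Mycobacterium tuberculosis over 4 days (cholesterol / DPPC medium with tyloxapol); the read-out is not stated. Concentration: 50 µM. The record gives no direction; compounds that gave an IC50 in retests scored well above the rest, so higher reads as more growth inhibition. Size under these conditions: about 69,000 compounds, about 370 of them at 50% or above in at least one test.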

compound | effect
Nc1cc2c(nn1)CCN(C(=O)CC1CCCC1)C2 | 12.08%
COCCN1CCn2cc(CNC(=O)C3CCC3)nc2C1 | -6.888%
O=C(c1cccnc1)N1CCOCC2(CCN(c3ncccn3)C2)C1 (stereo not shown) | 8.036%
Cc1c(C(C)N)cnn1-c1ccccn1 (stereo not shown) | -15.01%
CS(=O)(=O)N1CCc2[nH]cnc2C12CCN(C(=O)c1ccccc1)CC2 | 73.4% and 2.447%
CCOc1cccc(CNC(=O)CN2CCC3(CCOC3)C2)c1 (stereo not shown) | 4.801%
CCN(CC)c1nc2ccsc2c(=O)n1CCC(=O)NCc1ccco1 | 14.8%
CSCC(C)(O)CNc1ncccc1C(F)(F)F (stereo not shown) | -2.73%
CC(=O)NC1CCN(C(=O)c2cnc(COc3ccccc3)nc2O)C1 (stereo not shown) | -22.36%
COCCOc1ccc(NC(=O)N2CCOC(C(N)=O)C2)cc1F (stereo not shown) | 7.866%
O=C(CCc1ccccc1F)NS(=O)(=O)c1ccc2c(c1)OCCO2 | -18.12%
COc1c(C2CCCN2C(=O)c2nccnc2N)c(C)nn1C (stereo not shown) | 8.964%
O=C(NCc1ccc(-n2cncn2)nc1)c1cnccn1 | -5.043%
[H][C@]12C[C@H](C(=O)NC)N(S(C)(=O)=O)[C@@]1([H])CN(C(=O)c1ccco1)C2 | 2.365%
O=C(O)C(F)(F)F.O=C(O)C(F)(F)F.[H][C@@]12CCN(Cc3cccnc3)C(=O)[C@@]1([H])CN(Cc1ccc(C)s1)C2 | -18.95%
CC(C)(NCC(=O)N1CCCC(C(N)=O)C1)c1ccc(Cl)cc1 (stereo not shown) | 9.813%
c1n[nH]cc1CCCN1CCC(OC2CCCCC2)CC1 | -17.26%
FC(F)(F)c1cccc(C2(CNCc3ccncc3)CCOCC2)c1 | -13.32% and -0.6952%
COCC(=O)N1CCCC1c1nccnc1Nc1nc(C)cs1 (stereo not shown) | -10.69%
COc1ccc(CS(=O)(=O)CC(=O)NCc2ccccc2F)cc1F | -28.31%
CCn1nc(C)c2nc(C(C)C)nc(N3CCC(O)CC3)c21 | -26.09%
O=C(O)C(F)(F)F.[H][C@]12C[C@H](C(=O)NC)N(C)[C@@]1([H])CN(S(=O)(=O)c1ccc(F)cc1)C2 | -17.17%
Cc1nc(C)n(C2CCCN(C(=O)COc3ccccc3)C2)n1 (stereo not shown) | 7.664%
O=C(Nc1ccccc1)c1cc2n(n1)CCCN(C(=O)c1ccc[nH]1)C2 | -36.02%
Cc1[nH]c2c(F)cccc2c1CC(=O)N1CCCC(N)CC1 (stereo not shown) | -28.35%
Cc1cccc(CN2Cc3[nH]nc(COCCO)c3C2)n1.O=C(O)C(F)(F)F | 17.31%
CSCCN1CCC(NC(=O)c2cccc(C3CCCNC3)c2)CC1 (stereo not shown) | -8.024%
c1coc(-c2nc(CN3CCOC(Cn4cccn4)C3)cs2)c1 (stereo not shown) | -4.358% and -9.968%
Cc1cc(CN2CCc3nc(C)n(C)c(=O)c3CC2)[nH]n1 | 15.01%
CN1CC(c2ccccc2)C2(CCN(C(=O)c3cccn3C)CC2)C1=O (stereo not shown) | 3.5%
Cn1cc(CCNCC2CNc3ccnn3C2)cn1 (stereo not shown) | 3.759%
CCc1ccccc1Nc1noc2c1CN(C(=O)C1CCCO1)CC2 (stereo not shown) | -1.856%
CC(C)=CCCC(C)CN1CCC(n2cc(CO)nn2)CC1 (stereo not shown) | -9.856%
COc1cc(NCc2c(C)noc2C)c(C(=O)N(C)C)cc1OC | -11.71%
COCCN1CCC(CNC(=O)C2(c3cc(C)cc(C)c3)CC2)CC1 | 8.973%
Cc1cccnc1[C@H](C)NC(=O)Cc1cc2c(cc1Cl)OCCO2 | -36.69%
O=C(NCCN1CCOCC1)c1cc(-c2ccc3c(c2)CCO3)n[nH]1 | 11.86%
O=C(CCNCC(F)(F)F)N1CCC(Nc2cccnn2)CC1 | -47.26%
O=C(c1cncs1)N1CCOC(c2cc(CCO)[nH]n2)C1 (stereo not shown) | -9.007% and 1.472%
CCc1nc(CN(C)C2CCN(CCn3cc(C#N)cn3)C2)no1 (stereo not shown) | -45.83%
Cc1nc2c(c(N[C@H](C(N)=O)C(C)C)n1)Cc1ccccc1OC2 | 0.9397%
CCN1CCN(S(=O)(=O)c2cc(Cl)c(Cl)cc2C)CC1 | 7.431%
O=C(O)c1cccc(N2CCC(Oc3cccc(F)c3)CC2)n1 | -17.57%
COCCC(=O)N1Cc2ccccc2OC2(CCOCC2)C1 | 7.222% and -2.402%
CC(Oc1ccc(F)cc1F)C(=O)N1CCC2(CCCO2)CC1 (stereo not shown) | -10.48%
Cl.c1cc(OCc2ccc3c(c2)OCCO3)ccc1CNC1CC1 | -1.034%
COC(CNC(=O)c1cn(C)nn1)c1ccccc1C (stereo not shown) | 8.858%
CC1CCCN1C1CCN(C(=O)c2cccc(-c3ccoc3)c2)CC1 (stereo not shown) | -43.39%
CCn1nc(C)c2ncnc(NCC(=O)N3CCOCC3)c21 | 5.901%
COC(=O)c1ccc(NS(=O)(=O)c2cnc(NC(C)=O)s2)cc1 | -9.569%
[H][C@@]12CCCC[C@]1(O)CCN(Cc1cc(=O)n3c4c(cccc14)CCC3)C2 | 20.33%
CNc1oc(-c2ccc(OC)c(S(=O)(=O)N(C)C)c2)nc1C#N | -4.55%
Cc1nn(C)c(C)c1CC(=O)NCc1cccnc1OC1CCCC1 | -10.26% and -11.94%
CCc1ccc(NC(=O)C2CCN(C(=O)COC)CC2)cc1 | -3.313%
COCCN1CCN(CC(=O)NC2(C#N)CCCC2)CC1C (stereo not shown) | -14.63%
Cc1ccccc1C(=O)NC(C)c1cnn(C)c1 (stereo not shown) | -3.33%
CC(C)c1nc2oc(C(=O)N3CCOCC3)c(N)c2c2c1CCCC2 | 17.58%
CCCc1nc(NCCCn2cccn2)c2c(n1)c(C)nn2CC | 5.198%
O=C(NC1CC1)C1CCc2nnc(-c3cccnc3)n21 (stereo not shown) | -18.93%
CN(C)Cc1cnn(-c2ccccc2C(=O)NCCC2CCCN2C)c1 (stereo not shown) | -21.18% and 9.544%
CCc1[nH]c2c(CNc3nccc(N)n3)cc(F)cc2c1C | 17.4%
O=C(NC1CCN(CC2CC2)C1)N1CCC(OC2CCCCC2)CC1 (stereo not shown) | 6.744%
Cc1cccc(C(=O)N2CCC[C@]3(C[C@@H](OCC4CC4)CO3)C2)n1.O=C(O)C(F)(F)F | -8.29% and 4.097%
O=C(O)C(F)(F)F.[H][C@@]12COC[C@H](NS(C)(=O)=O)[C@]1([H])CN(Cc1ccc(C)o1)C2 | -4.199%
CN(C)C(=O)c1cnc2n1CCN(Cc1ccsc1)C2.O=C(O)C(F)(F)F | 13.67% and -15.28%
Cc1ccc(C)c(CNC(=O)NC(C)(C(=O)O)c2ccco2)c1 (stereo not shown) | -8.668%
CC(NC(=O)c1cc2n(n1)CCCN(C(C)C)C2)c1cn2ccsc2n1 (stereo not shown) | -6.831%
NCC1Cc2cc(F)cc(-c3cnccn3)c2O1 (stereo not shown) | 10.4%
CC[C@@]1(O)CCN(CCCOc2ccc(C(N)=O)cc2)C[C@H]1O | -13.06%
O=C(CNC1(CCO)CCOCC1)Nc1ccc(F)cc1F | -5.936%
CCCOc1ccc(Cl)cc1CNc1ncnc2oc(C)nc12 | 10.82%
CC(=O)NC1CCCN(Cc2ccc(-n3ccnc3)cc2)C1 (stereo not shown) | 3.249%

The last 8 entries again:

compound	effect
CN(C)C(=O)c1cnc2n1CCN(Cc1ccsc1)C2.O=C(O)C(F)(F)F	13.67% and -15.28%
Cc1ccc(C)c(CNC(=O)NC(C)(C(=O)O)c2ccco2)c1 (stereo not shown)	-8.668%
CC(NC(=O)c1cc2n(n1)CCCN(C(C)C)C2)c1cn2ccsc2n1 (stereo not shown)	-6.831%
NCC1Cc2cc(F)cc(-c3cnccn3)c2O1 (stereo not shown)	10.4%
CC[C@@]1(O)CCN(CCCOc2ccc(C(N)=O)cc2)C[C@H]1O	-13.06%
O=C(CNC1(CCO)CCOCC1)Nc1ccc(F)cc1F	-5.936%
CCCOc1ccc(Cl)cc1CNc1ncnc2oc(C)nc12	10.82%
CC(=O)NC1CCCN(Cc2ccc(-n3ccnc3)cc2)C1 (stereo not shown)	3.249%

Data taken from ChEMBL document CHEMBL3988442, “University of Dundee, Small-Polar-MMV Screening Library” (2021).